# Assay results published in the supplement of paper PMC11348887.
# Structures can show the parent of a compound that is named as a salt. The list shows a part of the results. Most entries show no effect beyond the scatter of the controls.
# What was measured:
# Conditions in all cases: 5 µM; treatment: days 7-14 after plating, readout day 21
# [1] = test system: hPSC-derived cortical neurons (WA09); assay: nucleus area z-score vs screen plate; higher = larger nuclei (more mature)
# [2] = test system: hPSC-derived cortical neurons (WA09); assay: total neurite length per nucleus (MAP2) z-score; higher = more neurite growth
# [3] = test system: hPSC-derived cortical neurons (WA09); assay: nucleus roundness z-score vs screen plate; higher = rounder nuclei (more mature)
# [4] = test system: hPSC-derived cortical neurons (WA09); assay: KCl-induced FOS+/EGR-1+ double-positive nuclei fraction z-score (KCl minus unstimulated); higher = stronger activity-induced IEG response
SMILES,nucleus area z-score [1],total neurite length per nucleus (z-score) [2],nucleus roundness z-score [3],KCl-induced FOS+/EGR-1+ double-positive nuclei fraction z-score [4]
CC1(C)CNc2cc(NC(=O)c3cccnc3NCc3ccncc3)ccc21 [Motesanib Diphosphate (AMG-706)],-0.451,2.5,0.195,-0.468
COc1ccccc1Oc1c(NS(=O)(=O)c2ccc(C(C)(C)C)cc2)nc(-c2ncccn2)nc1OCCO [Bosentan],-0.00743,0.00236,0.419,-0.16
COc1ccc(CC(C)NCC(O)c2ccc(O)c(NC=O)c2)cc1 (configuration not stated) [Formoterol Hemifumarate],-0.938,-1.61,-3.28,-0.389
N#C/C(=C\c1ccc(O)c(O)c1)C(=O)NCc1ccccc1 [AG-490 (Tyrphostin B42)],1.04,-0.721,-0.822,-0.605
Cc1c(C)c2c(c(C)c1O)CC[C@@](C)(CCC[C@H](C)CCC[C@H](C)CCCC(C)C)O2 [Vitamin E],-1.08,-0.141,0.37,2.28
COC(=O)C1=C(C)NC(C)=C(C(=O)OCCN2CCN(C(c3ccccc3)c3ccccc3)CC2)C1c1cccc([N+](=O)[O-])c1 (configuration not stated) [Manidipine 2HCl],-7.95,-4.14,-5.79,-0.579
Cc1cc(Nc2cc(N3CCN(C)CC3)nc(/C=C/c3ccccc3)n2)n[nH]1,0.384,-0.039,-0.948,-0.896
O=C1NC(=O)/C(=C/c2ccc(-c3ccc(F)cc3O)o2)S1,1.53,0.254,0.483,0.0304
CS(=O)(=O)N1CCc2c(-c3cnc(N)nc3)nc(N3CCOCC3)nc21,-0.979,-0.0937,-0.56,-1.1
CCC(C)C(NC(=O)C(C(C)CC)N(C)C(C)=O)C(=O)NC(C(=O)NC(CC(C)C)C(=O)C1(C)CO1)C(C)O (configuration not stated) [Epoxomicin],-15.9,-5.96,-2.5,-1.14
O=C1OC(CN2CCOCC2)CN1/N=C/c1ccc([N+](=O)[O-])o1 (configuration not stated) [Furaltadone HCl],0.199,0.206,0.0339,-0.155
CCCC(CCC)C(=O)O [Valproic acid sodium salt (Sodium valproate)],0.363,1.33,0.751,0.294
c1ccc(CC2=NCCN2)cc1 [Tolazoline HCl],0.154,0.375,-1,4.09
COc1cccc2c1C(=O)c1c(O)c3c(c(O)c1C2=O)C[C@@](O)(C(=O)CO)C[C@@H]3O[C@H]1C[C@H](N)[C@H](O)[C@H](C)O1 [Doxorubicin (Adriamycin)],-3.44,-2.75,1.15,-0.215
COc1c(C)c(C(=O)c2ccc(N)c(C(=O)O)c2)n2ccccc12,0.348,-0.034,0.356,2.35
COc1ccc(CCNCc2ccc(OCc3ccc(Cl)nc3)c(OC)c2)cc1OC,-0.811,-0.449,-0.221,-0.503
COc1cc(NS(=O)(=O)c2ccc(N)cc2)nc(OC)n1 [Sulphadimethoxine],-0.018,1.25,0.667,0.343
O=C(O)CSCC(=O)NC1CCSC1=O (configuration not stated) [Erdosteine],-0.809,1.44,-0.17,1.66
COc1ccc2[nH]c([S@@+]([O-])Cc3ncc(C)c(OC)c3C)nc2c1 [Esomeprazole Sodium],1.91,0.0289,-1.35,-0.798
CCN(C)S(=O)(=O)Nc1ccc(F)c(C(=O)c2c[nH]c3ncc(-c4cnc(C5CC5)nc4)cc23)c1F,2.23,0.762,-1.54,-0.291

# Fetched one by one from the list above, two records:
SMILES,nucleus area z-score [1],total neurite length per nucleus (z-score) [2],nucleus roundness z-score [3],KCl-induced FOS+/EGR-1+ double-positive nuclei fraction z-score [4]
Cc1c(C)c2c(c(C)c1O)CC[C@@](C)(CCC[C@H](C)CCC[C@H](C)CCCC(C)C)O2 [Vitamin E],-1.08,-0.141,0.37,2.28
Cc1cc(Nc2cc(N3CCN(C)CC3)nc(/C=C/c3ccccc3)n2)n[nH]1,0.384,-0.039,-0.948,-0.896

# Later entries:

SMILES,nucleus area z-score [1],total neurite length per nucleus (z-score) [2],nucleus roundness z-score [3],KCl-induced FOS+/EGR-1+ double-positive nuclei fraction z-score [4]
C[C@H](Nc1ncnc2nc[nH]c12)c1cc2cccc(Cl)c2c(=O)n1-c1ccccc1,1.19,0.17,-0.331,-0.366
CC(C)C[C@H](NC(=O)c1cc2ccccc2s1)C(=O)N1CCN(C(=O)[C@H](CO)NS(=O)(=O)c2ccc(Cl)cc2Cl)CC1,0.0637,-0.226,-0.484,-0.467
COC1=C2C[C@@H](C)C[C@H](OC)[C@H](O)[C@@H](C)/C=C(\C)[C@H](OC(N)=O)[C@@H](OC)/C=C\C=C(/C)C(=O)NC(=CC1=O)C2=O [Geldanamycin],0.334,2.05,-1.19,-1
NC(=O)c1ccc(-c2nc(-c3ccccn3)c(-c3ccc4c(c3)OCO4)[nH]2)cc1,4.08,-2.42,-3.34,-1.04
CN(C)CCN(Cc1ccccc1)c1ccccn1 [Tripelennamine HCl],-0.31,0.332,-0.0368,-0.122
C/C(=C\C(=O)OCCCCCCCCC(=O)O)C[C@@H]1OC[C@H](C[C@@H]2O[C@H]2[C@@H](C)[C@H](C)O)[C@@H](O)[C@H]1O [Mupirocin],0.226,-0.0276,0.104,2.8
Cc1cn([C@H]2C[C@H](N=[N+]=[N-])[C@@H](CO)O2)c(=O)[nH]c1=O [Zidovudine],0.548,0.662,0.507,-0.596
S=c1[nH]cnc2nc[nH]c12 [Mercaptopurine (6-MP)],-1.55,2.36,-1.95,-3.17
NC(=O)Cc1cccc(C(=O)c2ccccc2)c1N [Nepafenac],2.32,0.452,-0.752,2.34
Cc1cc(Nc2cc(N3CCN(C)CC3)nc(/C=C/c3ccccc3)n2)n[nH]1 [ENMD-2076 L-(+)-Tartaric acid],2.11,0.737,-1.77,-0.642
CCOC(=O)C1=C(C)NC(C)=C(C(=O)OC)C1c1cccc([N+](=O)[O-])c1 (configuration not stated) [Nitrendipine],0.624,-1.2,-1.25,-0.404
NCCCCCNCC12CC3CC(CC(C3)C1)C2 [IEM 1754 dihydrobroMide],1.19,0.328,0.331,3.33
CN(C)[C@@H]1C(O)=C(C(N)=O)C(=O)[C@@]2(O)C(O)=C3C(=O)c4c(O)cccc4[C@@](C)(O)[C@H]3[C@H](O)[C@@H]12 [Oxytetracycline (Terramycin)],0.446,-0.728,-1.38,-0.966
C#CCC(Cc1cnc2nc(N)nc(N)c2n1)c1ccc(C(=O)N[C@@H](CCC(=O)O)C(=O)O)cc1 (some centres not stated) [Pralatrexate],0.702,-0.0274,-1.13,-1.09
Cn1cncc1[C@@](N)(c1ccc(Cl)cc1)c1ccc2c(c1)c(-c1cccc(Cl)c1)cc(=O)n2C [Tipifarnib],-2.5,-0.661,1.13,-1.5
Oc1ccc(/C=C/c2cc(O)cc(O)c2)cc1 [Resveratrol],0.435,0.376,-0.0392,1.26
C=CCN1CCCC1CNC(=O)c1cc2nn[nH]c2cc1OC (configuration not stated) [Alizapride HCl],0.179,-1.55,-0.744,-2.62
CNc1nc(Nc2cnn([C@H]3CCN(C4COC4)C[C@@H]3F)c2Cl)ncc1C(F)(F)F,0.313,0.11,0.158,0.165
O=C(COc1cccc2c(=O)[nH]ccc12)c1ccccc1,-1.91,0.86,-1.92,-2.84
COc1ccc2cc1Oc1ccc(cc1)C[C@H]1c3c(cc4c(c3Oc3cc5c(cc3OC)CCN(C)[C@@H]5C2)OCO4)CCN1C [Cepharanthine],-17.4,-5.43,-6.38,5.91

SMILES,nucleus area z-score [1],total neurite length per nucleus (z-score) [2],nucleus roundness z-score [3],KCl-induced FOS+/EGR-1+ double-positive nuclei fraction z-score [4]
CCCOc1ccn2c(C(C)=O)cc(-c3ccccc3S(C)(=O)=O)c2c1,1.73,-0.00448,-0.13,1.71
Cc1cccc(-c2[nH]c(CNc3ccccc3F)nc2-c2ccc3ncnn3c2)n1,4.48,-2.02,-4.39,-0.122
Cc1cccc(C)c1NC(=O)C1CCCCN1C (configuration not stated) [Mepivacaine HCl],0.203,-0.241,-0.174,0.246
Cn1nnc(-c2ccc(-c3ccc(N4C[C@H](COP(=O)(O)O)OC4=O)cc3F)cn2)n1 [Tedizolid Phosphate],0.228,0.804,0.164,-0.125
O=S(=O)(O)CCCS(=O)(=O)O [Eprodisate disodium],2.15,0.399,0.595,1.6
COc1ccc2c(c1)C(=O)N(CCc1ccc(S(=O)(=O)NC(=O)NC3CCCCC3)cc1)C(=O)C2(C)C [Gliquidone],0.59,0.808,1.2,0.518
Cn1c(=O)c2[nH]cnc2n(C)c1=O [Aminophylline],0.103,1.49,1.67,0.0414
O=C(NCCN1CCOCC1)c1ccc(Cl)cc1,-0.0644,1.38,-0.162,-0.207
COc1ccc2c(c1)c(CC(=O)OCC(=O)O)c(C)n2C(=O)c1ccc(Cl)cc1 [Acemetacin],1.07,0.0452,-0.588,-0.383
CCS(=O)(=O)CCn1c([N+](=O)[O-])cnc1C [Tinidazole],0.485,0.795,0.322,0.457
Cc1ccc(S(=O)(=O)Cc2nc(-c3ccc(C(=O)NCc4cccnc4)cc3)oc2C)cc1,-13.8,-4.26,-1.42,-0.518
Cn1cc(C2=C(c3ccc(Cl)cc3Cl)C(=O)NC2=O)c2ccccc21,1.43,0.399,0.275,0.659
Cc1ccc(C)c(OCCCC(C)(C)C(=O)O)c1 [Gemfibrozil],1.15,-0.312,-0.765,0.111
Cc1nc(N)sc1-c1ccnc(Nc2ccc(N3CCOCC3)cc2)n1,2.04,0.827,1.58,2.17
O=C(CCCN1CCC(O)(c2ccc(Cl)cc2)CC1)c1ccc(F)cc1 [Haloperidol],-2.08,-1.28,-0.789,-1.48
O=C(Nc1ccc([N+](=O)[O-])cc1O)Nc1ccccc1Br,-3.82,-2.57,0.691,-0.711
CCCc1nc(C(C)(C)O)c(C(=O)OCc2oc(=O)oc2C)n1Cc1ccc(-c2ccccc2-c2nnn[nH]2)cc1 [Olmesartan Medoxomil],-0.0115,-0.784,-0.328,-0.737
CC(C)(C)c1ccc(C(=O)CCCN2CCC(OC(c3ccccc3)c3ccccc3)CC2)cc1 [Ebastine],1.49,-2.91,-7.06,-0.0984
